# Some of the results follow.
# B1: Epa8 (Candida glabrata) (protein)
# chain: MGSSHHHHHHSSGLVPRGSHMASSRALSDYPLGCSPLLGTKLTPGLSMELYEYPLDNHGIGPHCWDPAYLNPEYPRTGFESHKLIGTAQNVMSLNFEHRTQDCHVEFSNLPASFNFPDQITLTNFTMLLYGYFKPKESGRYRFHMEADDLLLMNLGAGNAFDCCAHEATRNNLGDYIAYDIWAGTRKDVEVFLEKEVFYPLRLFFNNRDGRAALDFSYYLNGATEPGTDIPELLFSLPDGESCPAYI
# Tests used:
# Assay in all cases: glycan array binding signal (z-score within array); higher = stronger binding
# Details in all cases: glycan notation: IUPAC condensed, linker removed
# [1] = target: Gal(b1-4)GlcNAc(b1-6)Gal(b1-4)GlcNAc
# Outline: (§1)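 Glycan array data were curated from 3228 arrays in the Consortium for Functional Glycomics database and kept only where the protein sequence was available. Glycan names were converted to IUPAC-condensed notation, and columns mapping to the same glycan were averaged. The binding signal is a within-array Z-score, averaged across arrays of the same protein sequence at different concentrations or buffers and across linkers. Negative Z-scores can be read as non-binding.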
# [2] = target: Gal(b1-4)GlcNAc(b1-6)GalNAc
# Outline: as §1
# [3] = target: Gal(b1-4)GlcNAc(b1-6)[Gal(b1-3)]GalNAc
# Outline: as §1
# [4] = target: Gal(b1-4)GlcNAc(b1-6)[Gal(b1-4)GlcNAc(b1-3)]GalNAc
# Outline: as §1
# Gal(b1-4)GlcNAc6P = target: Gal(b1-4)GlcNAc6P
# Outline: as §1
# Gal(b1-6)Gal = target: Gal(b1-6)Gal
# Outline: as §1
# Gal3S(b1-3)GalNAc = target: Gal3S(b1-3)GalNAc
# Outline: as §1
# Gal3S(b1-3)GlcNAc = target: Gal3S(b1-3)GlcNAc
# Outline: as §1
# [5] = target: Gal3S(b1-3)[Fuc(a1-4)]GlcNAc
# Outline: as §1
# Gal3S(b1-4)Glc = target: Gal3S(b1-4)Glc
# Outline: as §1
# Gal3S(b1-4)Glc6S = target: Gal3S(b1-4)Glc6S
# Outline: as §1
# Gal3S(b1-4)GlcNAc = target: Gal3S(b1-4)GlcNAc
# Outline: as §1
# [6] = target: Gal3S(b1-4)[Fuc(a1-3)]Glc6S
# Outline: as §1
# [7] = target: Gal3S(b1-4)[Fuc(a1-3)]GlcNAc
# Outline: as §1
# [8] = target: Gal3S(b1-4)[Fuc(a1-3)]GlcNAc6S
# Outline: as §1
# Gal3S4S(b1-4)GlcNAc = target: Gal3S4S(b1-4)GlcNAc
# Outline: as §1
# Gal3S6S(b1-4)GlcNAc = target: Gal3S6S(b1-4)GlcNAc
# Outline: as §1
# Gal3S6S(b1-4)GlcNAc6S = target: Gal3S6S(b1-4)GlcNAc6S
# Outline: as §1
# Gal4S(b1-4)GlcNAc = target: Gal4S(b1-4)GlcNAc
# Outline: as §1
# Gal4S6S(b1-4)GlcNAc = target: Gal4S6S(b1-4)GlcNAc
# Outline: as §1
# Gal6P(b1-4)GlcNAc = target: Gal6P(b1-4)GlcNAc
# Outline: as §1
# Gal6S(b1-3)GlcNAc = target: Gal6S(b1-3)GlcNAc
# Outline: as §1
# Gal6S(b1-3)GlcNAc6S = target: Gal6S(b1-3)GlcNAc6S
# Outline: as §1
# Gal6S(b1-4)Glc = target: Gal6S(b1-4)Glc
# Outline: as §1
# Gal6S(b1-4)Glc6S = target: Gal6S(b1-4)Glc6S
# Outline: as §1
# Gal6S(b1-4)GlcNAc = target: Gal6S(b1-4)GlcNAc
# Outline: as §1
# Gal6S(b1-4)GlcNAc6S = target: Gal6S(b1-4)GlcNAc6S
# Outline: as §1
# GalNAc(a1-3)Gal = target: GalNAc(a1-3)Gal
# Outline: as §1
# GalNAc(a1-3)GalNAc = target: GalNAc(a1-3)GalNAc
# Outline: as §1
# [9] = target: GalNAc(a1-3)GalNAc(b1-3)Gal(a1-4)Gal(b1-4)Glc
# Outline: as §1
# [10] = target: GalNAc(a1-3)GalNAc(b1-3)Gal(a1-4)Gal(b1-4)GlcNAc
# Outline: as §1
# GalNAc(b1-3)Gal = target: GalNAc(b1-3)Gal
# Outline: as §1
# [11] = target: GalNAc(b1-3)Gal(a1-4)Gal(b1-4)GlcNAc
# Outline: as §1
# [12] = target: GalNAc(b1-3)Gal(a1-4)Gal(b1-4)GlcNAc(b1-3)Gal(b1-4)Glc
# Outline: as §1
# [13] = target: GalNAc(b1-3)Gal(a1-6)Gal(b1-4)Glc
# Outline: as §1
# GalNAc(b1-3)GalNAc = target: GalNAc(b1-3)GalNAc
# Outline: as §1
# GalNAc(b1-3)GlcNAc = target: GalNAc(b1-3)GlcNAc
# Outline: as §1
# GalNAc(b1-4)Gal(b1-4)Glc = target: GalNAc(b1-4)Gal(b1-4)Glc
# Outline: as §1
binder,measurement,setting,value
B1,glycan array binding signal (z-score),[1],-0.084
same,glycan array binding signal (z-score),[2],0.443
same,glycan array binding signal (z-score),[3],0.343
same,glycan array binding signal (z-score),[4],-0.35
same,glycan array binding signal (z-score),Gal(b1-4)GlcNAc6P,-0.026
same,glycan array binding signal (z-score),Gal(b1-6)Gal,-1.7
same,glycan array binding signal (z-score),Gal3S(b1-3)GalNAc,0.161
same,glycan array binding signal (z-score),Gal3S(b1-3)GlcNAc,-0.119
same,glycan array binding signal (z-score),[5],0.899
same,glycan array binding signal (z-score),Gal3S(b1-4)Glc,-0.058
same,glycan array binding signal (z-score),Gal3S(b1-4)Glc6S,0.684
same,glycan array binding signal (z-score),Gal3S(b1-4)GlcNAc,-0.968
same,glycan array binding signal (z-score),[6],1.36
same,glycan array binding signal (z-score),[7],0.067
same,glycan array binding signal (z-score),[8],0.622
same,glycan array binding signal (z-score),Gal3S4S(b1-4)GlcNAc,-1.32
same,glycan array binding signal (z-score),Gal3S6S(b1-4)GlcNAc,-0.028
same,glycan array binding signal (z-score),Gal3S6S(b1-4)GlcNAc6S,0.968
same,glycan array binding signal (z-score),Gal4S(b1-4)GlcNAc,-1.81
same,glycan array binding signal (z-score),Gal4S6S(b1-4)GlcNAc,0.342
same,glycan array binding signal (z-score),Gal6P(b1-4)GlcNAc,-0.02
same,glycan array binding signal (z-score),Gal6S(b1-3)GlcNAc,-0.036
same,glycan array binding signal (z-score),Gal6S(b1-3)GlcNAc6S,1.85
same,glycan array binding signal (z-score),Gal6S(b1-4)Glc,0.199
same,glycan array binding signal (z-score),Gal6S(b1-4)Glc6S,1.14
same,glycan array binding signal (z-score),Gal6S(b1-4)GlcNAc,-0.007
same,glycan array binding signal (z-score),Gal6S(b1-4)GlcNAc6S,1.56
same,glycan array binding signal (z-score),GalNAc(a1-3)Gal,-0.335
same,glycan array binding signal (z-score),GalNAc(a1-3)GalNAc,-0.2
same,glycan array binding signal (z-score),[9],-0.455
same,glycan array binding signal (z-score),[10],-0.311
same,glycan array binding signal (z-score),GalNAc(b1-3)Gal,-0.001
same,glycan array binding signal (z-score),[11],-0.467
same,glycan array binding signal (z-score),[12],0.147
same,glycan array binding signal (z-score),[13],-0.488
same,glycan array binding signal (z-score),GalNAc(b1-3)GalNAc,-0.308
same,glycan array binding signal (z-score),GalNAc(b1-3)GlcNAc,-0.119
same,glycan array binding signal (z-score),GalNAc(b1-4)Gal(b1-4)Glc,0.191

# A different layout for some results above.
binder	measurement	setting	value
B1	glycan array binding signal (z-score)	[12]	0.147
same	glycan array binding signal (z-score)	[13]	-0.488
